{"sequences": {"note": "By UniProt entry, the sequences of proteins in these tests, tags left out.", "UniProt Q0JBA9, entry or part of it": "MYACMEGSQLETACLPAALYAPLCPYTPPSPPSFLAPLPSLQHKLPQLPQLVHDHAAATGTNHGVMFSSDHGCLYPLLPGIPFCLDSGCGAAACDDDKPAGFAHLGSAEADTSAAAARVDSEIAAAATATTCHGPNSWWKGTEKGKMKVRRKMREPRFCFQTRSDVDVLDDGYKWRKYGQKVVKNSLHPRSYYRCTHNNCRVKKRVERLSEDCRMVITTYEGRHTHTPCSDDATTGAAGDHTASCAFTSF"}, "source": "paper PMC7819943", "about": "“Rice protein-binding microarrays: a tool to detect cis-acting elements near promoter regions in rice”", "note": "The other results are listed elsewhere or left out.", "data": [{"biological_target": "OsWRKY34 (Oryza sativa, UniProt Q0JBA9 1-250)", "experiment": "protein-binding microarray (RPBM); PBS, 2% BSA, 51.3 ng/ul salmon testes DNA, 50 uM zinc acetate, 200 nM TF, 25 C, 1 h; high values mean tight binding", "conditions": "protein: recombinant; tags: N-terminal polyhistidine and DsRed monomer fusion (pET32a); label: CyDye5-dUTP incorporated in the synthesized complementary strand; 3' TTTTT single-stranded linker to array surface; dsDNA, one strand shown", "how_it_was_run": "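The binding signal is fluorescence intensity per array feature (arbitrary units). Readings came from an Axon 4000B scanner after a washed, 2% BSA-blocked, double-stranded custom Agilent array had been incubated for 1 h at 25 °C with 200 nM protein and 50 µM zinc acetate. The protein was a Ni–NTA-purified transcription factor fused N-terminally to polyhistidine and DsRed, expressed in E. coli BL21-CodonPlus.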", "values": [{"sequence": "CGTGTCCTCCGCTCATTGGTTGAGTTGCGCCGCCGCCTCTCGGAGTCACCTAGTGCAG", "binding signal": "9550 fluorescence intensity (a.u.)"}, {"sequence": "TCTTCTTCTTTTTTCGCCATTGCTGTTGTCTGCTTCGTTCCGGAGTCACCTAGTGCAG", "binding signal": "11600 fluorescence intensity (a.u.)"}, {"sequence": "GGGACCCGCTTGTCATACTCTCCCACCTCTCTCTTCTCCACGGAGTCACCTAGTGCAG", "binding signal": "10400 fluorescence intensity (a.u.)"}, {"sequence": "CAATCATTTGCTTCTATGGCAGGCTATACACCACACTTTTCGGAGTCACCTAGTGCAG", "binding signal": "10400 fluorescence intensity (a.u.)"}, {"sequence": "CACCCGCCCGCCACACGCCCAAAAAACGCCCCGAAATCCCCGGAGTCACCTAGTGCAG", "binding signal": "8970 fluorescence intensity (a.u.)"}, {"sequence": "GTATGCCATCTTCACACCATCACAGCCGTCCATACCAGCACGGAGTCACCTAGTGCAG", "binding signal": "15100 fluorescence intensity (a.u.)"}, {"sequence": "CCTTGCTCTGCCACCGGTGGCCCTCCTGGCGCTTGCTCGTCGGAGTCACCTAGTGCAG", "binding signal": "8350 fluorescence intensity (a.u.)"}, {"sequence": "GGCCCATAATAATATGGTTTGGTCCTATCTCATACCCAACCGGAGTCACCTAGTGCAG", "binding signal": "8200 fluorescence intensity (a.u.)"}, {"sequence": "TTTAAAACAACTTGTATATACTCCCTCTGTCCCATAACGTCGGAGTCACCTAGTGCAG", "binding signal": "8480 fluorescence intensity (a.u.)"}, {"sequence": "GTGCATACTAGTATATACACCGTACTCCTCCGTATGTACTCGGAGTCACCTAGTGCAG", "binding signal": "8430 fluorescence intensity (a.u.)"}, {"sequence": "GGGCAAGGGGAGCGGATGGGCGGGGAGGAGGCAGGCTGCGCGGAGTCACCTAGTGCAG", "binding signal": "11600 fluorescence intensity (a.u.)"}, {"sequence": "TGCCTAAATTTATACTGATGGGGTGTATATATGGTGAAAACGGAGTCACCTAGTGCAG", "binding signal": "8040 fluorescence intensity (a.u.)"}, {"sequence": "ACGCGCGCTACATTCTCCACCTCTCCACCATTCCAAACTGCGGAGTCACCTAGTGCAG", "binding signal": "9850 fluorescence intensity (a.u.)"}, {"sequence": "AGGTAGTGGTGGATGGGGAGGAGGAGGAGCCTTAGGTAGTCGGAGTCACCTAGTGCAG", "binding signal": "11300 fluorescence intensity (a.u.)"}, {"sequence": "CGTGGTAATTTTTATTGGTAAGTGGTGGTGAAGTGGGTGACGGAGTCACCTAGTGCAG", "binding signal": "8300 fluorescence intensity (a.u.)"}, {"sequence": "ATGCTAATTTACCGTCTTTCTTGCAATTTTTTCCATCGCTCGGAGTCACCTAGTGCAG", "binding signal": "13300 fluorescence intensity (a.u.)"}, {"sequence": "GGCCCGGCCCACTCTCCACTAGCGCTCTCTCTTCTCTTTCCGGAGTCACCTAGTGCAG", "binding signal": "9290 fluorescence intensity (a.u.)"}, {"sequence": "AAACGTATGGCTGCTCTCTCTCTGCTGATGATCTCTCTCTCGGAGTCACCTAGTGCAG", "binding signal": "8180 fluorescence intensity (a.u.)"}, {"sequence": "AATCGTTCTTTTACCATGTTTTCTATTTTACCCTAGTTTTCGGAGTCACCTAGTGCAG", "binding signal": "10000 fluorescence intensity (a.u.)"}, {"sequence": "GGCCGATGTGGGGAGGTGGAGGAGGAGAGAGAGGCGGGATCGGAGTCACCTAGTGCAG", "binding signal": "8830 fluorescence intensity (a.u.)"}, {"sequence": "CTATTGTTCAAGATTTCGTCATGCTTATGACCGCAAAACCCGGAGTCACCTAGTGCAG", "binding signal": "8040 fluorescence intensity (a.u.)"}, {"sequence": "CTCTTGTAGTTGTGTGTTGTTGTACCCCGAATCCAATATACGGAGTCACCTAGTGCAG", "binding signal": "13000 fluorescence intensity (a.u.)"}, {"sequence": "CCCTCAACCGCTCGTCCGCGCCCATCAACCGCCAAAGACTCGGAGTCACCTAGTGCAG", "binding signal": "9890 fluorescence intensity (a.u.)"}, {"sequence": "TTCCTGTTCTATTCTTTCAGCAATGGTTTAGGTCAACACACGGAGTCACCTAGTGCAG", "binding signal": "9430 fluorescence intensity (a.u.)"}, {"sequence": "CTCCTACTCGTTCTCTATGGTGTGCGTGCTGTTGCTTTTTCGGAGTCACCTAGTGCAG", "binding signal": "16100 fluorescence intensity (a.u.)"}, {"sequence": "TGGTAACCACTGTTCTGCTGTTTTGTGCTTTTCTTCTGTCCGGAGTCACCTAGTGCAG", "binding signal": "12600 fluorescence intensity (a.u.)"}, {"sequence": "ACATTGGCGCCATTCCCAACGAACTCCTACGTCGTGGCCTCGGAGTCACCTAGTGCAG", "binding signal": "8780 fluorescence intensity (a.u.)"}, {"sequence": "CGGTGGCTTCCCGCCTCTCCCCGCGCGTTTTCCCGCTTGACGGAGTCACCTAGTGCAG", "binding signal": "8900 fluorescence intensity (a.u.)"}, {"sequence": "GTCCAGTAGCGGTTCGTCAGTCCAGACCAGTTCCTAGCTCCGGAGTCACCTAGTGCAG", "binding signal": "8470 fluorescence intensity (a.u.)"}, {"sequence": "TCCTCTGGTCTGGCGAGCATTAATCTTTCAGTTTCTAGTACGGAGTCACCTAGTGCAG", "binding signal": "8170 fluorescence intensity (a.u.)"}, {"sequence": "CCAATGTTTCGTTTTGGGTCACACTTGTGCCAATTTTTTTCGGAGTCACCTAGTGCAG", "binding signal": "9070 fluorescence intensity (a.u.)"}, {"sequence": "TGGTTATGTGCCACAAATCATATATGCAATTTTGACTATACGGAGTCACCTAGTGCAG", "binding signal": "9270 fluorescence intensity (a.u.)"}, {"sequence": "CCCAGGCGCCTCTCTCTCTCTCTCTAGTTTCTCGCACCACCGGAGTCACCTAGTGCAG", "binding signal": "10400 fluorescence intensity (a.u.)"}, {"sequence": "CGTTATTACGCTGCTTCCTTTGGTCCAACCGCGTGCTCCTCGGAGTCACCTAGTGCAG", "binding signal": "11200 fluorescence intensity (a.u.)"}, {"sequence": "GCCCACGGCCCGGCACGAAGCCCGCAATTTTGGCCCGGCCCGGAGTCACCTAGTGCAG", "binding signal": "8080 fluorescence intensity (a.u.)"}, {"sequence": "AGATTGGGCTTTTTTTTAATGAGGGGTTAGTTCTTAAAAACGGAGTCACCTAGTGCAG", "binding signal": "12500 fluorescence intensity (a.u.)"}, {"sequence": "AATCAATTTTTTTAAAAAAATATACACATTTCATTATCTTCGGAGTCACCTAGTGCAG", "binding signal": "9090 fluorescence intensity (a.u.)"}, {"sequence": "CTGCATTTTATTTAATCCTTTTCCATTTTTTTCTGCATTTCGGAGTCACCTAGTGCAG", "binding signal": "8290 fluorescence intensity (a.u.)"}, {"sequence": "ATCGCTTGCTTATGAATTCGGGTTGGTTTGTTGTGTGGTACGGAGTCACCTAGTGCAG", "binding signal": "8630 fluorescence intensity (a.u.)"}, {"sequence": "CACCTTCCTGACAGTACAGATGCAGAGCTGCTCCCTATAACGGAGTCACCTAGTGCAG", "binding signal": "8750 fluorescence intensity (a.u.)"}, {"sequence": "CATCCATGATTCCATGGACAGCCAATCTTCTTTGCAGTTTCGGAGTCACCTAGTGCAG", "binding signal": "8220 fluorescence intensity (a.u.)"}, {"sequence": "CCAAAAATGTTGTGGTATTTAGTTTGTTTAATTTAATTTACGGAGTCACCTAGTGCAG", "binding signal": "8950 fluorescence intensity (a.u.)"}]}]}
